Paper PMC3559503
Results are given in words; binding and its absence hold for the method and conditions named. Some entries that bind do so weakly or less than the wild type.

Target: BteA (full length, residues 1-658) (B. bronchiseptica) (UniProt L0PR31)
Assay: SDS-PAGE of the purified protein (SDS-resistant oligomers); fractions of the Ni2+-affinity purification resolved by SDS-PAGE; high-molecular weight bands beside the monomer band; both purified

BteA (full length, residues 1-658) (from UniProt L0PR31 1-657)
binding: binds
